Experimental findings from article PMC4239075 are described below.

Protein sequences, listed by entry. Tags and fused reporters are not part of them. Lines headed by an entry give the natural chain unless they say otherwise; changes in a name come on top.
UniProt O09106: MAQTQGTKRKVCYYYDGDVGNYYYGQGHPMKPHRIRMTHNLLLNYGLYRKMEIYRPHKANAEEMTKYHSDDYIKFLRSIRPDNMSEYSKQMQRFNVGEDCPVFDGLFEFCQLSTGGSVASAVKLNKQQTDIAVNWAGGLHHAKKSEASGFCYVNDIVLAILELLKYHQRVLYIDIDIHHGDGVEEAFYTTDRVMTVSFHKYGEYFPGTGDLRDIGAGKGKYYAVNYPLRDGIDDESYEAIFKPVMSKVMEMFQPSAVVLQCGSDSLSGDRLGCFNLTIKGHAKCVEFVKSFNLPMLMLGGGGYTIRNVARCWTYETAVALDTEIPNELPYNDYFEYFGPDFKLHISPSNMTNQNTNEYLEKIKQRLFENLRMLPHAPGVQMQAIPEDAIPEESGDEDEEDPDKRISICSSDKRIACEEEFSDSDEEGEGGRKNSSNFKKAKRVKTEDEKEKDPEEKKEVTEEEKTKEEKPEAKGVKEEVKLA
UniProt Q08369: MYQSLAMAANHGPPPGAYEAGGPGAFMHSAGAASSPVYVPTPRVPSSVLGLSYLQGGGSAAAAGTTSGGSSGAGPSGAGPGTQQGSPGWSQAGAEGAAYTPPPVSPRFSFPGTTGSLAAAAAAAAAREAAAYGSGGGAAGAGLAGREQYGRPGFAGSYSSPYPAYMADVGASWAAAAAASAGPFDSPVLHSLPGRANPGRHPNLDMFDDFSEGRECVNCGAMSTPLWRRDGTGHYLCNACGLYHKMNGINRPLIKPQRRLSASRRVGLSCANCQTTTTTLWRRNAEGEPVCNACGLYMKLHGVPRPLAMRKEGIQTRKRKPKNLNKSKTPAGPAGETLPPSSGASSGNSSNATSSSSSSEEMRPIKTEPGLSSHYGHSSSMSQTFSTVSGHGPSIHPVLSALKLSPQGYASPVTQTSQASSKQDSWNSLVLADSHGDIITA

Results are given in words; binding and its absence hold for the method and conditions named. Binding seen in cells or lysates may run through a third protein. Some entries that bind do so weakly or less than the wild type. For some of these results: Tags and fused reporters may be left off the sequences shown.

The target of assay [1] is T1, Histone deacetylase 3 (mouse (endogenous in E14T ESCs)) (UniProt O88895).
T1 sequence: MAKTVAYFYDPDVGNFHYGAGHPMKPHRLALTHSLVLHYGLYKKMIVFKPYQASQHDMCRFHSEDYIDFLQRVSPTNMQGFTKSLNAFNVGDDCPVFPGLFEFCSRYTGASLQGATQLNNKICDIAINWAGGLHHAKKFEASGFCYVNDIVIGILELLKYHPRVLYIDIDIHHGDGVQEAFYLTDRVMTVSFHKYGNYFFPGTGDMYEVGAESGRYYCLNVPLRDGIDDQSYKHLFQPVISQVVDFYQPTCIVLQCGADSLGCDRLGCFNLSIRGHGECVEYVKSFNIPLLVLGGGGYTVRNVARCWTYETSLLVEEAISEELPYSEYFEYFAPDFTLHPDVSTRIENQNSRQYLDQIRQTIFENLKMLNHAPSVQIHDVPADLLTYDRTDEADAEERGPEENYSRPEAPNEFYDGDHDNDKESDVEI
The experiment in a line: co-IP; ESC lysate (1% Triton X-100, 50 mM Tris-HCl pH 7.4, 150 mM NaCl) incubated with anti-HDAC1 or anti-HDAC3-coated A/G beads for 4 h or overnight, control IgG; western blot for T/Bry or Gata4. (In general: A western blot detects proteins with antibodies after separation by electrophoresis.)

Assay [2] has as its target T2, T-box transcription factor T/Bry (UniProt P20293).
T2 sequence: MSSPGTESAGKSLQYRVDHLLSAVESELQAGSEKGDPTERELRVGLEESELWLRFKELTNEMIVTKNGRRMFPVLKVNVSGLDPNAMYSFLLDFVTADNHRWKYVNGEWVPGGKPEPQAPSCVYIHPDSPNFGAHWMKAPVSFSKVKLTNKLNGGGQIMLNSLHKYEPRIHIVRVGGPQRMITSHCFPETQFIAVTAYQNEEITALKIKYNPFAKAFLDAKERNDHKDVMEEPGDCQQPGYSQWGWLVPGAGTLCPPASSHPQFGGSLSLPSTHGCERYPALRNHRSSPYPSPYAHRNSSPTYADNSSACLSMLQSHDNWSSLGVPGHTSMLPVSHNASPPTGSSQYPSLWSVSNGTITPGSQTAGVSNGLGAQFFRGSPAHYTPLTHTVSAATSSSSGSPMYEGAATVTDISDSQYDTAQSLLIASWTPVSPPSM
Put plainly: co-IP; IP with control IgG or T/Bry antibody from lysate of cells expressing T/Bry, western blot for HDAC1 and HDAC3; 5% input.

Assay [3] deals with Histone deacetylase 1 (mouse (endogenous in E14T ESCs)) (UniProt O09106). The experiment in a line: co-IP; ESC lysate (1% Triton X-100, 50 mM Tris-HCl pH 7.4, 150 mM NaCl) incubated with anti-HDAC1 or anti-HDAC3-coated A/G beads for 4 h or overnight, control IgG; western blot for T/Bry or Gata4.

As for Gata4 (from UniProt Q08369 1-441), the binding entry in assay [1] is listed as “no binding”.
Take “Histone deacetylase 1 (from UniProt O09106 1-482) (enzyme)”: the binding result in assay [2] is reported as “binds”.

B1: T-box transcription factor T/Bry (protein, UniProt P20293 1-436)
chain: T2 sequence
For the molecule B1, the binding result in assay [3] and in assay [1] was “binds” throughout.
